These are yes or no findings as the source states them, for the method shown. Binding seen in cells or lysates may run through a third protein. Some entries that bind do so weakly or less than the wild type.
How the values were obtained:
[1] = biological target: mouse CTLA-4 (WT, full length) (mouse) (UniProt P09793); test: co-immunoprecipitation with anti-CTLA-4 from cotransfected JTAg cells, immunoblot
[2] = biological target: mouse CTLA-4 (WT, full length) (mouse) (UniProt P09793); test: co-immunoprecipitation with CTLA-4 mAb from cotransfected JTAg cells treated with DMSO, PP2 or PP3, immunoblot (FIG. 12)

By UniProt entry, the sequences of proteins in these tests, tags left out. Where a name states a change or a piece, a line headed by the entry shows the natural chain unless it says otherwise. Residues count along the entry.
UniProt P09793, residues 36-223: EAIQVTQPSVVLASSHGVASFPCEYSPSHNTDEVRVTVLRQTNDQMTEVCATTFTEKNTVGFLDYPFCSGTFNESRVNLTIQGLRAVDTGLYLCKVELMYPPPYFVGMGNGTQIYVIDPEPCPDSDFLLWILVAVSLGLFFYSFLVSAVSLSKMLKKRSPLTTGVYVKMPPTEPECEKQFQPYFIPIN
UniProt P24723: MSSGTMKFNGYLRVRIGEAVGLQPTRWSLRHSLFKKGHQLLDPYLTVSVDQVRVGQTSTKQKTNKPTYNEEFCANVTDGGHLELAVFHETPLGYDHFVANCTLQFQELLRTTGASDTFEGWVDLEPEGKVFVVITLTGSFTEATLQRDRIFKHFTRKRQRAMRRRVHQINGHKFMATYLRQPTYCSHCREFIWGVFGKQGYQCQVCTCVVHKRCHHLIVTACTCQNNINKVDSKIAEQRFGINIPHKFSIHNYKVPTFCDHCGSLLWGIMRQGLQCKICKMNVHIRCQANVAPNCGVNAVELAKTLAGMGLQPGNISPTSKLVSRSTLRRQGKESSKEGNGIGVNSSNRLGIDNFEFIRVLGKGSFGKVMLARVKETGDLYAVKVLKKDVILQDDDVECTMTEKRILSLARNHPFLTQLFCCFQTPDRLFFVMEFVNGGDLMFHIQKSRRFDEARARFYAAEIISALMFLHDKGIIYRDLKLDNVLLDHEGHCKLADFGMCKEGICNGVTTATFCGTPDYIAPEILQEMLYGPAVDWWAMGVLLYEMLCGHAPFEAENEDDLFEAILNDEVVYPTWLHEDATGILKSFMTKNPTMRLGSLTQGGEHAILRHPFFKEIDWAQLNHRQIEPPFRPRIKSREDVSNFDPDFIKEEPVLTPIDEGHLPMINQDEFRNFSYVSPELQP

binding [1]: binds
binding [2]: binds
Substance: Xpress-tagged WT PKCη (full-length human Prkch) (from UniProt P24723 1-683) (enzyme)
